Holding throughout (assay): FRET or BRET; homomerization FRET by confocal microscopy in living HEK293 cells co-expressing C-terminally CFP- and YFP-labelled copies of the same Orai1 variant; room temperature, 18-24 h after transfection
(Bioluminescence resonance energy transfer reports proximity on the nanometre scale.)

Amino acid sequences for entries named in this document (tags omitted). A change or cut given only in a name is not applied to a line headed by its entry.
UniProt Q96D31: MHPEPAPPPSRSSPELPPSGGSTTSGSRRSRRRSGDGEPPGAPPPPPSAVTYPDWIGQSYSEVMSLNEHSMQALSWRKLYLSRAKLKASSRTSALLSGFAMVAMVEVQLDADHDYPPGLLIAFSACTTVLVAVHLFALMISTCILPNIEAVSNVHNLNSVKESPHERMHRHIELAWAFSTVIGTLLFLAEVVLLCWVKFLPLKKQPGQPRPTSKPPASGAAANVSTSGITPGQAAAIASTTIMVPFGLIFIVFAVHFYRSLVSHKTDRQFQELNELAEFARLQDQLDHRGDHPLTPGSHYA

Test [1] deals with Orai1-V181A-CFP / Orai1-V181A-YFP (C-terminally labelled) (human) (UniProt Q96D31).
Test [2] addresses Orai1-V181E-CFP / Orai1-V181E-YFP (C-terminally labelled) (human) (UniProt Q96D31).
Test [3] has as its target Orai1-V181K-CFP / Orai1-V181K-YFP (C-terminally labelled) (human) (UniProt Q96D31).
Test [4] addresses Orai1-V181R-CFP / Orai1-V181R-YFP (C-terminally labelled) (human) (UniProt Q96D31).
Test [5] concerns the target wt Orai1-CFP / wt Orai1-YFP (human Orai1, C-terminally CFP- or YFP-labelled) (human) (UniProt Q96D31).

No constants are given. Whether binding was seen depends on the method and setting. Binding seen in cells or lysates may run through a third protein. Some binding calls cover weakened binding; strength is not graded here.

Consider “Orai1-V181A-CFP / Orai1-V181A-YFP (C-terminally labelled) (from UniProt Q96D31-1 1-301)”, for which, in test [1], the binding entry was “binds”.
As to “Orai1-V181E-CFP / Orai1-V181E-YFP (C-terminally labelled) (from UniProt Q96D31-1 1-301)”, the binding entry in test [2] is given as “binds”.
Consider “Orai1-V181K-CFP / Orai1-V181K-YFP (C-terminally labelled) (from UniProt Q96D31-1 1-301)”, for which, in test [3], the binding entry is “binds”.
As to “Orai1-V181R-CFP / Orai1-V181R-YFP (C-terminally labelled) (from UniProt Q96D31-1 1-301)”, the binding result in test [4] is given as “binds”.
In the case of “wt Orai1-CFP / wt Orai1-YFP (human Orai1, C-terminally CFP- or YFP-labelled) (from UniProt Q96D31-1 1-301)”, the binding result in test [5] was “binds”.

These data come from publication PMC11569263.
